Where “and” joins values, the source holds several entries; their conditions need not be identical. Equal entries are not always repeated. At least one peptide structure holds a part that was inferred or is arguable (an end, a ring closure or a residue). Square brackets hold non-standard residues; d marks the D form. Peptide text beside a SMILES is read from it. pGlu = O=C1CC[C@@H](C(=O)O)N1
How the values were obtained:
SKOV3 cells = assay: Peptide uptake by immunofluorescence (Texas Red-conjugated streptavidin); assay type: cell-based; settings: SKOV3 cells (GnRH-RI-negative), 3 micromoles per liter, 16 hours
ES-2 cells [1] = assay: Cellular uptake and endosomal localization of FAM-conjugated peptide; assay type: cell-based; settings: 1 hour at 37° C.
MDA-MB-231 cells = assay: Cell viability assay (crystal violet); assay type: cell-based; settings: MDA-MB-231 (breast cancer, GnRH-RI-positive), 3 days
LnCaP cells = assay: Cell viability assay (crystal violet); assay type: cell-based; settings: LnCaP (prostate cancer, GnRH-RI-positive), 3 days
A2780 cells = assay: Cell viability assay (crystal violet); assay type: cell-based; settings: A2780 (ovarian cancer, GnRH-RI-positive), 3 days
fibroblasts (BJ) = assay: Cell viability assay (crystal violet); assay type: cell-based; settings: do not express GnRH-RI, 3 days
[2] = system: endothelial cells (HUVEC); assay: Cell viability assay (crystal violet); assay type: cell-based, human; settings: do not express GnRH-RI, 3 days
[3] = system: HeLa cervical cancer cells; assay: Cell viability assay (crystal violet); assay type: cell-based; settings: do not express GnRH-RI, 3 days
SKOV3+GnRH-RI cells = assay: TUNEL-staining of treated cells; assay type: cell-based; settings: 3 days, 30 micromoles per liter
ES-2 cells [4] = assay: Cell morphology under phase-contrast microscopy; assay type: cell-based; settings: 3 days after peptide addition, up to 30 micromoles per liter
[5] = system: ERK1/2, p38 and JNK in ES-2 cells; assay: Activation of GnRH-RI signal transduction pathway (Western blot of phosphorylated ERK1/2, p38 and JNK); assay type: cell-based; settings: 10 micromoles per liter, 0 to 180 minutes
ES-2-GFP cells = assay: Mouse i.p. xenograft model of epithelial ovarian cancer; assay type: in vivo
Experimental: FIGS. 4A-4C. Anti-tumor activity of [DLys6]GnRH-4EBP1-WT peptide in a xenograft model of EOC. Female nude mice were inoculated i.p. with one million ES-2-GFP cells. At Day 9 after tumor cell inoculation, one group of mice (n=5) was sacrificed (pre-treatment). At Day 9, other groups of mice were administered by i.p. injection with saline (n=11), [DLys6]GnRH (n=11) or [DLys6]GnRH-4EBP1-WT (n=11) at a dose of 3.0 nanomoles per gram body weight Saline or peptide was administered every 2 days thereafter for 11 days (6 doses in total), and mice were sacrificed on Day 20. (FIG. 4A) Visualization under a fluorescence stereoscope of i.p. tumors in pre-treatment mice (at Day 9) including implants on the omentum (ome), and in mice treated with saline, with agonist alone and with [DLys6]GnRH-4EBP1-WT (at Day 20). (FIG. 4B) Hematoxylin eosin-stained sections of tissues of pre-treatment mice (at Day 9) and of saline- and peptide-treated mice (at Day 20). Tumors attached to the omentum extensively involved the pancreas in saline- and agonist-treated mice. Also shown are tumors attached to the broad ligament and mesentery. Bar, 200 micrometers. (FIG. 4C) Quantification of i.p. tumor burden in pre-treatment and treated mice that completed the regimen, expressed as the average percent of area of fluorescence within the abdominal cavity in captured images, and volume of ascites. Median values of tumor burden and ascites volume for each group and statistical significance of differences between groups are indicated.
Animal Studies. Animal studies were approved by the Institutional Animal Care and Use Committee. The ES-2 cell line stably expressing enhanced green fluorescent protein (ES-2-GFP) has been described in previous work (Hara et al., 2007). Four-week-old female nude mice were inoculated i.p. at one site in the lower abdomen with 10^6 ES-2-GFP cells. At Day 9 after tumor cell inoculation, one group of mice (n=5) were killed by CO2 asphyxiation. At Day 9, other groups of mice were administered by i.p. injection with 200 microliters of phosphate-buffered saline (PBS) (n=11), [DLys6]GnRH (n=11) or [DLys6]GnRH-4EBP1-WT peptide (n=11) at a dose of 3.0 nanomoles per gram body weight. Peptides were suspended in PBS and administered at a volume of 200 microliters. PBS or peptide was administered every 2 days thereafter for 11 days (6 doses in total). Mice were sacrificed on Day 20, and ascites harvested. Tumors were visualized under a Leica MZML III fluorescence stereomicroscope equipped with mercury lamp power supply and green fluorescent protein (GFP) filter set. Tumor burden was quantified by measuring areas of fluorescence signals within the abdominal cavity in captured images by using Image Pro Plus 5.0 software (Media Cybernetics, Bethesda, Md.). […]

[6] = drop-out mice, individual animals

**Q.** With `CC[C@H](C)[C@H](NC(=O)[C@H](CCCNC(=N)N)NC(=O)[C@@H](NC(=O)CNC(=O)CNC(=O)[C@@H]1CCCN1C(=O)[C@H](CCCNC(=N)N)NC(=O)[C@H](CC(C)C)NC(=O)[C@@H](CCCCN)NC(=O)[C@H](Cc1ccc(O)cc1)NC(=O)[C@H](CO)NC(=O)[C@H](Cc1c[nH]c2ccccc12)NC(=O)[C@H](Cc1c[nH]cn1)NC(=O)[C@@H]1CCC(=O)N1)[C@@H](C)O)C(=O)N[C@H](C(=O)N[C@@H](Cc1ccc(O)cc1)C(=O)N[C@@H](CC(=O)O)C(=O)N[C@@H](CCCNC(=N)N)C(=O)N[C@@H](CCCCN)C(=O)N[C@@H](Cc1ccccc1)C(=O)N[C@@H](CC(C)C)C(=O)N[C@@H](CCSC)C(=O)N[C@@H](CCC(=O)O)C(=O)N[C@@H](CS)C(=O)N[C@@H](CCCNC(=N)N)C(=O)N[C@@H](CC(N)=O)C(=O)N[C@@H](CO)C(=O)N1CCC[C@H]1C(=O)N[C@H](C(=O)N[C@H](C(=O)O)[C@@H](C)O)C(C)C)[C@@H](C)CC` [[DLys6]GnRH-4EBP1-WT] ([pGlu]HWSY[dK]LRPGGTRIIYDRKFLMECRNSPVT-OH) as the compound, how does the “cellular uptake (internalization) of peptide” value (SKOV3 cells) read?
**A.** Its value is “but not”.

**Q.** And the “cellular uptake of peptide” value (ES-2 cells [1]; 3 micromoles per liter)?
**A.** Its value is “taken up”.

**Q.** What about the “peptide in early endosomes (EEA1 staining)” value (ES-2 cells [1]) of the same compound?
**A.** The value was “some peptide was detected”.

**Q.** And the “peptide in late endosomes and lysosomes (LAMP1 and LAMP2 staining)” value (ES-2 cells [1])?
**A.** The value was “A small proportion of peptide was detected”.

**Q.** What about the cell growth (MDA-MB-231 cells) of the same compound?
**A.** Its cell growth is “inhibited”.

**Q.** And the cell growth (LnCaP cells)?
**A.** The cell growth was “inhibited”.

**Q.** And the cell growth (A2780 cells)?
**A.** Its cell growth is “inhibited”.

**Q.** And the cell growth (fibroblasts (BJ))?
**A.** The cell growth was “failed to inhibit growth”.

**Q.** And the cell growth [2]?
**A.** The cell growth was “failed to inhibit growth”.

**Q.** And the cell growth [3]?
**A.** Its cell growth is “failed to inhibit growth”.

**Q.** And the “cell death as indicated by TUNEL-staining” value (SKOV3+GnRH-RI cells)?
**A.** The value was “induced cell death”.

**Q.** And the “cell blebbing and detachment” value (ES-2 cells [4])?
**A.** The value was “induced”.

**Q.** What about the “activation of ERK1/2, p38 and JNK compared to cells treated with [DLys6]GnRH alone” value [5] of the same compound?
**A.** Its value is “No significant difference”.

**Q.** What about the Ascites volume (ES-2-GFP cells; [6]) of the same compound?
**A.** Its Ascites volume is 10.0 mL and 6.2 mL.

**Q.** What about the “Percent i.p. tumor burden” value (ES-2-GFP cells; [6]) of the same compound?
**A.** The value was 47.1% and 27.8%.

**Q.** And the “i.p. tumor burden, percent of the abdominal cavity (mean)” value (ES-2-GFP cells; mice that completed regimen, Day 20, 3.0 nanomoles per gram body weight i.p. every 2 days, 6 doses)?
**A.** Its value is 13.7%.

**Q.** What about the “reduction in tumor burden as compared to saline or GnRH agonist alone” value (ES-2-GFP cells; mice that completed treatment) of the same compound?
**A.** The value was 50%.

Reference: patent US20110319338A1, “PEPTIDES THAT BIND EUKARYOTIC TRANSLATION INITIATION FACTOR 4E” (The Board of Regents of the University of Texas System, priority 2008, published 2011)
